The target of this experiment is Taz1-min (S. pombe Taz1 F511E, P513N), two-hybrid fusion (S. pombe) (UniProt P79005). Description: two-hybrid; GBD and GAD plasmids (pGBKT7, pGADT7) co-transformed in strain PJ69-4A; HIS3 and ADE2 reporters, 3 mM 3-aminotriazole in some plates; 30 °C, 3-4 days.

The record followed here is paper PMC8219681, “Inhibition of MRN activity by a telomere protein motif” (Nature Communications, 2021).

These are yes or no findings as the source states them, for the method shown. Some entries that bind do so weakly or less than the wild type. Where a sequence is shown, tags or fusion partners need not be part of it.

B1: Taz1-min (S. pombe Taz1 F511E, P513N), two-hybrid fusion (protein, UniProt P79005 1-663)
chain: MISVQSTETIQKVLENEGDQQFDKEVVQNSDSNIETGQISDSLTKAVEERAETESSSNLSNFTTSESESSKPAYCFNSHSQNMAEGSISIPVISHSMNVENEVSTAEGQDSRTGESENDQNAMIVRSIWDIEKASLLVNDCQNIANMAEQKVMMVSAIFSESSKDIVNPESFSERLGKETVKDLYEFNEQLTTKYGLEFRTIFFSYIRKYDAYWCLFEDLEKPLKSIQFFTGLIDLLDNTNKHLTLRSIVLDALLSADEEDSFYGDALVLFEELVIRYFGTDSNPSIDASEFILSCLPYTSLDALNVVCGQVWKSQKICDFLKSTIGNTSNSPLQLRASFPAFVNAVIHFLLEFKNVRRLERKDLSVKGMLYDSDSQQILNRLRERVSGSTAQSADEASGHESDASEDTFSERTLGLNSIDNTEISEVVSLGLVSSALDKITGLLSADNLSETVSQARDFSHTLSKSLKSRAKSLSQKEAANRSKLIAKRGDNLRREASLSSEQDDLSEDEPNVRESDEQESRSGGRSSAMRVSIERSAARSGTRRSQGNPYEGYRTRRKWTDEEENELYEMISQHGCCWSKIIHIQKLENGPLKTFGPTQIKDKARLIKARFMKQNRLQELYSKSLNWKNVTVGQAYCELHKIPYIEATPPLLREELVNYQS
As to B1, the binding result is on record as “binds”.
